The source of these data is article PMC9945777.

What all share (experiment): cryo-EM structure; SsoCsm complex purified from S. solfataricus with heterogeneous bound 48 nt crRNA; graphene oxide coated grids, Volta phase plate; overall resolution 3.52 Å; ColabFold models of the subunits fitted into a composite multibody map and refined; both purified
Experiment [1] concerns the target T1, SsoCsm Cas7a subunit (1430) (Saccharolobus solfataricus (endogenous)) (UniProt Q97YA2).
T1 sequence: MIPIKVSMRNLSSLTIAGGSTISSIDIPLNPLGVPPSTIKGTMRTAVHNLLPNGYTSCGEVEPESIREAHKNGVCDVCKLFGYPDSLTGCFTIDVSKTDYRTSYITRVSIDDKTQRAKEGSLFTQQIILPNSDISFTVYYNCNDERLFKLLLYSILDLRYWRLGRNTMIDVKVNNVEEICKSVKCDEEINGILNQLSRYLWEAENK

Experiment [2] deals with T2, SsoCsm Cas7d subunit (1426) (Saccharolobus solfataricus (endogenous)) (UniProt Q97YA6).
T2 sequence: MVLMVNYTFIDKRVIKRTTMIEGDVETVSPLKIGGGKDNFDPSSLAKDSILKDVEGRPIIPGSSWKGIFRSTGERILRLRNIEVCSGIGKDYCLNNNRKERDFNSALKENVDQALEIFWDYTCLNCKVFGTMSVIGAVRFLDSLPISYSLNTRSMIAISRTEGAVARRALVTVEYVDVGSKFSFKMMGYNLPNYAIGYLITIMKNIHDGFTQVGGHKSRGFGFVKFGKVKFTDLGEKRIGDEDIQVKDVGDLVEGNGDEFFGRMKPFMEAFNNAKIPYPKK

Experiment [3] deals with T3, SsoCsm Cas7c subunit (1425) (Saccharolobus solfataricus (endogenous)) (UniProt Q97YA7).
T3 sequence: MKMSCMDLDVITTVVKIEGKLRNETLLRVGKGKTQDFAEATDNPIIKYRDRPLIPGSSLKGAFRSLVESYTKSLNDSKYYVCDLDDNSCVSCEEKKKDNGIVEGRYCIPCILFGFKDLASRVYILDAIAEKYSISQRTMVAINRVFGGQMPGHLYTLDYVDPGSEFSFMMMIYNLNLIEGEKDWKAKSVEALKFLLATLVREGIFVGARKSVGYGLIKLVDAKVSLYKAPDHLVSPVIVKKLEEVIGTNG

Experiment [4] concerns the target T4, SsoCsm Cas7b subunit (1432) (Saccharolobus solfataricus (endogenous)) (UniProt Q97YA0).
T4 sequence: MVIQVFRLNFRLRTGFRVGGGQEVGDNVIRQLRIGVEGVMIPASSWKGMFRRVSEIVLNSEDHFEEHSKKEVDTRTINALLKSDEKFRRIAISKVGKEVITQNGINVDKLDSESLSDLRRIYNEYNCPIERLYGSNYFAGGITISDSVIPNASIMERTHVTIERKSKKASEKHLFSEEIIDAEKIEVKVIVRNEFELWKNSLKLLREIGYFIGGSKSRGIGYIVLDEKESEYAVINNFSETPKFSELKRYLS

Experiment [5] addresses SsoCsm Cas11 subunit (1424) (Saccharolobus solfataricus (endogenous)) (UniProt Q97YA8).
Experiment [6] addresses T5, SsoCsm Cas5 subunit (1431) (Saccharolobus solfataricus (endogenous)) (UniProt Q97YA1).
T5 sequence: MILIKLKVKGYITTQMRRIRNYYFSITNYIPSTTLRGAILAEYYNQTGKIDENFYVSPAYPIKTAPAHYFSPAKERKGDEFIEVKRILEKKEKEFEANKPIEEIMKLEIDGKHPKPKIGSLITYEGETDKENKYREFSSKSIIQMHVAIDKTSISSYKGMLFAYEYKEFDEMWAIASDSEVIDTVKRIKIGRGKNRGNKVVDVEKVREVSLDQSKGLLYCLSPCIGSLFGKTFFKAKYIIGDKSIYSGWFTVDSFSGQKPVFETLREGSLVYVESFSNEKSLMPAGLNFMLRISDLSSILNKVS

No constants are given. Whether binding was seen depends on the method and setting. Some entries that bind do so weakly or less than the wild type.

B1: SsoCsm Cas7b subunit (1432) (protein, UniProt Q97YA0 1-252)
chain: T4 sequence
B1: the binding result in experiment [1] is reported as “binds”.

B2: SsoCsm Cas7e subunit (1427) (protein, UniProt Q97YA5 1-275)
chain: MQRSPIRRSNYTPRNEKGLEGVIELQLNVVSDYLHVGSGKYDVEVMRSVSDVKRLVEDYLSGGNKRIPNNVDQYFSMVAFLMVRNKDNVVIPGSTIKGMVRSRLELSVPGSCYIVTGHSTSSSAVYKRIFNPDPNRGSDRFDVNKFPQVCPVCDLLGNMGLASRVSLSDFVMTSGKVDYVNVKGRDYEVVTKGSIFAGKVLYKSLKPVEIGMLLYGFGFVKDCNGSKVMLLGRFKFSDKRFGRVKFSLKTPIADCNKLVSDFVKQFNPRYINEEW
Consider B2, for which the binding entry in experiment [2] was “binds”.

B3: SsoCsm Cas7c subunit (1425) (protein, UniProt Q97YA7 1-250)
chain: T3 sequence
With B3, the binding result in experiment [3] and in experiment [4] was “binds” throughout.

B4: SsoCsm Cas7d subunit (1426) (protein, UniProt Q97YA6 1-281)
chain: T2 sequence
Take B4: the binding entry in experiment [2] and in experiment [3] was “binds” in each case.

B5: SsoCsm Cas11 subunit (1424) (protein, UniProt Q97YA8 1-139)
chain: MRVKHYIQREFNYSVSSQDLLDIATRIAISAIKPKPKSNKPEPYVDSSTINSLLSFLQSRRNVNELLLYIMRQAGRDEIDEETGKLLLASLKDRELKDAVNLLGYVKWVYDTLTGLKVNYNNVKGVKTFKELVNILSKV
Consider B5, for which the binding entry in experiment [5] is reported as “binds”.

B6: SsoCsm Cas7a subunit (1430) (protein, UniProt Q97YA2 1-206)
chain: T1 sequence
Take B6: the binding entry in experiment [6] was “binds”.
